Bounds are passed on as bounds.

This data set can be described thus: Cytotoxicity, MTS method, Vero CCL-81. The format is cell-based. Conditions: African monkey, Vero CCL-81 cells. For orientation: Tetrazolium assays rely on reduction of a dye to a coloured formazan, in cell work by metabolically active cells.

A word on the CC50: it is the concentration at which the toxic effect on the cells reaches its halfway point. With `CCC(CC)COC(=O)[C@H](C)N[P@](=O)(OC[C@H]1O[C@@](C#N)(c2ccc3c(N)ncnn23)[C@H](O)[C@@H]1O)Oc1ccccc1` [Remdesivir], the CC50 was over 100 µM.

The values are drawn from article PMC8357487 (Current Research in Pharmacology and Drug Discovery, 2021).
